Amino acid sequences for entries named in this document (tags omitted).
UniProt Q24311: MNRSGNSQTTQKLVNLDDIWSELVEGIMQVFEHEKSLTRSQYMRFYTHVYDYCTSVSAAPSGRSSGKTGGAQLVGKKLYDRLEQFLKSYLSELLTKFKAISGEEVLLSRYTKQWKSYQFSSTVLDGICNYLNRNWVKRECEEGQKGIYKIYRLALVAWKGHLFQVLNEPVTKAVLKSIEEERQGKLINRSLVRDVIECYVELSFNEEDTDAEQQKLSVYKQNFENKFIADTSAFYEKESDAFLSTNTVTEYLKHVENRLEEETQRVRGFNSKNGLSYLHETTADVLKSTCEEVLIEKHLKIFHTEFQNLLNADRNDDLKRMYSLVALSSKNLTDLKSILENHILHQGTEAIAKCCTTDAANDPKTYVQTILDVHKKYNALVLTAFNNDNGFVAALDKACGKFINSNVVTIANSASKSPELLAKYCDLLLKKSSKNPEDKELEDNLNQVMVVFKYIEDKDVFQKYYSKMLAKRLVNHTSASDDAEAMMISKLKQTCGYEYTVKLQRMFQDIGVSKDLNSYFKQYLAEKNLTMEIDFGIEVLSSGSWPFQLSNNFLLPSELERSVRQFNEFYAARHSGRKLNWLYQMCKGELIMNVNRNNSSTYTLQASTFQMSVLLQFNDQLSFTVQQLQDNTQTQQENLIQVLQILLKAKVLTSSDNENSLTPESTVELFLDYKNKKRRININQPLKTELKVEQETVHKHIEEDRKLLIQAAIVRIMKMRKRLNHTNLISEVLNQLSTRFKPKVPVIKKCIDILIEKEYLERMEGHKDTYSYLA
UniProt O77430: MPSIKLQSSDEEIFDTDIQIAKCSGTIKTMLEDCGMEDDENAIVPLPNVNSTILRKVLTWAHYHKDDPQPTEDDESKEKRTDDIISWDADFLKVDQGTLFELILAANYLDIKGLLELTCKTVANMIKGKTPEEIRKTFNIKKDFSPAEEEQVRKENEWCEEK
UniProt P18431: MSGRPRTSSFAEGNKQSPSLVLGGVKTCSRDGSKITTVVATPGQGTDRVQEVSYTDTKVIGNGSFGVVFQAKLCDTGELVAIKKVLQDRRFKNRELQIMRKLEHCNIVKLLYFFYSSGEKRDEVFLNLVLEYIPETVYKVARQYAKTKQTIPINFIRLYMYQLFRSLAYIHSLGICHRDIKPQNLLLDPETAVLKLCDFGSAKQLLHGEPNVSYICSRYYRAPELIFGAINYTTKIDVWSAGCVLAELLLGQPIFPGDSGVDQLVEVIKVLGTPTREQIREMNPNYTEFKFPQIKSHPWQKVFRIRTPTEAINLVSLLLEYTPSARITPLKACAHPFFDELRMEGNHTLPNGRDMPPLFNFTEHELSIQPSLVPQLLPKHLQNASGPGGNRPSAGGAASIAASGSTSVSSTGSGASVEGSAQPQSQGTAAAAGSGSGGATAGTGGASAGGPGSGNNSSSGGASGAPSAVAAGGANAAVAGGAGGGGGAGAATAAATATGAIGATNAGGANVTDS

In publication doi:10.1101/078337:

T1: Flag-SMN (Drosophila SMN from the Flag-Smn^WT transgene) (Drosophila melanogaster) (UniProt Q9VV74)
T1 sequence: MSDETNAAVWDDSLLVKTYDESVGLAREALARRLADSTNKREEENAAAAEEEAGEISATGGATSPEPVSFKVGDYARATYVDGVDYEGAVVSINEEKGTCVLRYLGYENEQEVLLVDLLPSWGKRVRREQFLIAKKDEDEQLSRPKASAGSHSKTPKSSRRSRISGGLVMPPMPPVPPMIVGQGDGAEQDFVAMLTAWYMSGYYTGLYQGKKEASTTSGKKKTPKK


biological target: T1, Flag-SMN (Drosophila SMN from the Flag-Smn^WT transgene) (Drosophila melanogaster); assay: affinity purification with mass spectrometry

Molecule	binding
Bendless (Ben) (enzyme, UniProt P35128 1-151) MSSLPRRIIKETQRLMQEPVPGINAIPDENNARYFHVIVTGPNDSPFEGGVFKLELFLPEDYPMSAPKVRFITKIYHPNIDRLGRICLDVLKDKWSPALQIRTILLSIQALLSAPNPDDPLANDVAELWKVNEAEAIRNAREWTQKYAVED	binds
Gemin2 (Drosophila) (protein, UniProt Q9VVX0 1-245) MQHEPEDQTFQLQALEICEPDSSFDPQKPPESGEEYLMHMFYERKRCPAVVTKRSSKIRNNTGNTTLEMLDNPELPPFKCLLPTPEWRDEQVKSFQAARSQVLVLRKELANNNYDQSGEPPLTSDQEKWKEFCRNQQPLLSTLLHLTQNDLELLLEMLSKWLQDPNTTVDLLHDVWLARWLYATLVCLHLPLEPHVFSTLRYIARTCIHLRNQLKEDEVQRAAPYNLLLTLTVQVFAQNDFKDYI	binds
Rigor mortis (Gemin5 orthologue) (protein, UniProt Q86BY9 1-1235) MNSQVMYHNVPTPPGNVSLAAAAPDGGLLYAGIRCINYISAPPANGEQPQVVTMSTRINILALDVSPMWGLGNGGPTKPFAIVGDDLSVQVWDCALGEAVIGHKAHQHQHEARDVRVVHHTTNSVLMSYLANGNILSMDASDLVIYCVASNTYCRRSTFISPRNHQLTMVRCSPYNDNLFAVGTAMGNVLVCDLRKMNIVYKFHGHKAPICGLAWREVPAAEDEKTNNLALSAEEWRSRNGGQEEKPKTKPPPLTKSKAAESDDPFDIYNFDHLEYEFGAPIAERRRKSSEDCGGEFVGLEKPAGAAVLDFVEACESVKAELLASRQEDKTQHVEVTLHDCEPTKPTGPLSDASTISNKNDASDSTEGSLEVIQYSSSSDDAVIVDGEAAKPKREVLHHIYHQAEVHASGTPQTKSEPQSNLQVVPAISAETISLTSVNSTHLETLLVSIDGDEVMMIWNTNTGAHAGKNYSKSKTAGKLNNVYWLNNHVIVSLSRHQLFFWSVEFERKMLRYKISKDKSHSCHLQDIVSFACDSSKEMIWLCRNNRQIGMMNPKTGRMADFYGTVAFGVRAMAECPDDMNKIALGCSDRRVAFFDISKLTTSCLPIDSVYVSSNVYCLAWSPNCLELAFGTFDGTVGILDVERMKVKTHLRTPHKKEVYSLVWQDHFIYFIVNRVLGFFDLRKSKIEPTIVNCISRPSYLSIRDSFLFVGTDDGLLQIHERDSGMEKSWSPFIRQSALFARYVTDIAWCPLDSNKFAVSGNDRSVYVMEFQPTERNWKTLHTFTANTEKASITSMRWSHTQKHLLLTFHIEGKVCLWNCNAPEKPPLTITYHCPMWCGMFLPTNENIIMCSGKALSVELIDIKDALEGDEKSICPKVDALLNVKWASKSLTQPYAPVLTAAEKKRQRRDQRKAAAKLEVDVANKDQKKIQESVTAVIDNPTNDKCTQETPVEEMLEALSLDKEQNNRSAKECPKCKEQSPDSFTHSRTCLYLTQKELNKSALEKLAIVLTEDSAKIDKSVLISKLFSSKVMAKELIATELTNLKHSNTKDIAPLCLAMSTFKLREELEQHIANKTLTERHVSLAPSVSFTLWQDCCRAYAKQMEEKGYIMHAATYLFSQGMQSEAIKLFLANEYYKEALVHARICLPATDPLIKTVINNWLEHLEGTGNFAAAALICVLDNEMLRGYSYLRKYRNCTPEIADLMDQIKRIGQLGGVLDGCAPNEPIHNGSTAEH	binds

biological target: T1, Flag-SMN (Drosophila SMN from the Flag-Smn^WT transgene) (Drosophila melanogaster); assay: affinity purification with mass spectrometry; remark: another data set of the same source

Molecule	binding
supernumerary limbs (Slmb), endogenous in Drosophila embryos	binds
U7-specific Sm-like heterodimer Lsm10/11 (complex)	binds
Cullin 1 (Cul1), endogenous in Drosophila embryos (from UniProt Q24311 1-774)	binds
Skp1-related A (SkpA), endogenous in Drosophila embryos (from UniProt O77430 1-162)	binds
Shaggy (Sgg), the Drosophila GSK3β orthologue (from UniProt P18431 1-514) (enzyme)	binds

Results are given in words; binding and its absence hold for the method and conditions named. Binding seen in cells or lysates may run through a third protein. These calls come from enrichment with a bait or labelling near it, and not all partners need be listed. Sequences can lack the tags named with a protein.
